The record followed here is patent publication US20230295338A1.

Sequences of proteins named here, by UniProt entry; tags and fusion partners are left off. A change or cut given only in a name is not applied to a line headed by its entry.
UniProt P06731: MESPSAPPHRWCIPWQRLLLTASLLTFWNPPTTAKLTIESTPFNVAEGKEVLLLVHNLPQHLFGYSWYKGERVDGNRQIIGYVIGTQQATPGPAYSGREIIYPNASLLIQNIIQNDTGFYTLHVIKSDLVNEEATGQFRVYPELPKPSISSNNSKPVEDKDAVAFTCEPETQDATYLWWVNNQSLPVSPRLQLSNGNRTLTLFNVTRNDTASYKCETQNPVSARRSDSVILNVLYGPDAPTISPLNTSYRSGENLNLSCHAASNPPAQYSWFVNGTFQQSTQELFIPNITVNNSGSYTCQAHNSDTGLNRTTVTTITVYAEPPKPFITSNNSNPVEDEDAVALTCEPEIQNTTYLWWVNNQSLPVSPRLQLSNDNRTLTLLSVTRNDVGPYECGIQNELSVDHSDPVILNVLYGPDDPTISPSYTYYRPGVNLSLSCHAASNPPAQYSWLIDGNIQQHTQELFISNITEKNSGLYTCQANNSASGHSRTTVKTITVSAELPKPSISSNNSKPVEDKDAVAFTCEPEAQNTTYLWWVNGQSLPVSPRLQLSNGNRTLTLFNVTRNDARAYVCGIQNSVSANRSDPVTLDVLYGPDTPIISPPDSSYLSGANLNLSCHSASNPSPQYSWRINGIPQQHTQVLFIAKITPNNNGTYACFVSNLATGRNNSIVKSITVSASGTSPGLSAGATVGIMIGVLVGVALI

No constants are given. Whether binding was seen depends on the method and setting. A result given as binding can be weak or reduced; the word gives no strength.

The assay has as its target human CEACAM5 (human) (UniProt P06731). Put plainly: flow cytometry on CHO transfectants. A general note: Flow cytometry measures light scatter and fluorescence of single cells or particles in a stream.

B1: CC1/3/5-Sab (antibody, V domains shown)
VH: EVQLQQSGPELVKPGTSVKMSCKASGYTFTTYVMHWVQQKPGQGLDWIGFFNPYNDGTKYNEKFKGKATLTSDKSSSTAYMELSSLTSEDSAVYYCARWAYDGSYAYWGQGTTLTVSS
VL: DIQMTQSSSYLSVFLGGRVTITCKASDHINNWLAWYQQKPGNAPRLLISGATSLETGVPSRFSGSGSGKDYTLSIISLQTEDVATYYCQQYWRTPFTFGSGTKLEIK
For the molecule B1, the binding entry was “binds”.
